PubChem BioAssay AID1508597, Cure First, 2020

- Assay: 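Genes whose silencing sensitises or protects ovarian cancer cells against rucaparib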 (primary screen)
- Cell system: human ovarian carcinoma lines grown from tumours: OCI-P5x (papillary serous) and OCI-C5x (clear cell)
- Knock-down reagent: siRNA pool against human genes, 1.25 pmol siRNA per well
- Duration: 72 h or 96 h, depending on the cell culture
- Challenge: rucaparib 20 µM (about IC30) or vehicle, present until read-out
- Rucaparib or vehicle: Rucaparib
- Cell line: OCI-P5x (serous)
- Measured: 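ATP luminescence measured at 72 or 96 h according to the culture, then normalised and expressed as percent viability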
- Scale: viability, normalised: higher = more viable cells remaining
- Rule for the call: 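a well counts as a hit if its normalised viability is under 80 percent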
- Meaning of the calls: active = viability under 80%; inactive = viability 80% or more
This is a random part of the about 2,100 reagents, in one setting of the screen. 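Calls flag viability under 80% in either arm, not effects specific to rucaparib; the reference for percent is not stated.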 A reagent listed more than once was tested more than once; the source does not tell the runs apart. No sequences are given here. The record does not give: the 100% reference.

PRDM16, technical replicate 1 gave viability, normalised (%) = 32.1; active.
PRDM16, technical replicate 2 scored viability, normalised (%) = 42.9; active.
For PRDM16, technical replicate 3, the values are viability, normalised (%) = 41.9; active.
TTN, technical replicate 1 gave viability, normalised (%) = 92.3; inactive.
For TTN, technical replicate 2, the values are viability, normalised (%) = 108; inactive.
TTN, technical replicate 3 scored viability, normalised (%) = 104; inactive.
NAP1L5, technical replicate 1 showed viability, normalised (%) = 49.2; active.
For NAP1L5, technical replicate 2, the values are viability, normalised (%) = 50.2; active.
NAP1L5, technical replicate 3 gave viability, normalised (%) = 55.1; active.
For DDX28, technical replicate 1, the entry reads viability, normalised (%) = 70.7; active.
DDX28, technical replicate 2 scored viability, normalised (%) = 82.7; inactive.
DDX28, technical replicate 3 showed viability, normalised (%) = 53.9; active.
ARID3B, technical replicate 1 showed viability, normalised (%) = 53.9; active.
ARID3B, technical replicate 2 scored viability, normalised (%) = 52.3; active.
ARID3B, technical replicate 3 scored viability, normalised (%) = 46.3; active.
ZDHHC1, technical replicate 1 gave viability, normalised (%) = 61; active.
With ZDHHC1, technical replicate 2, the entry reads viability, normalised (%) = 73.2; active.
ZDHHC1, technical replicate 3 scored viability, normalised (%) = 57.2; active.
KMT5C, technical replicate 1 showed viability, normalised (%) = 58; active.
KMT5C, technical replicate 2 scored viability, normalised (%) = 57; active.
For KMT5C, technical replicate 3, the values are viability, normalised (%) = 69.4; active.

Records above whose gene name starts with D or d (3):
DDX28, technical replicate 1 | viability, normalised (%): 70.7; Call: active
DDX28, technical replicate 2 | viability, normalised (%): 82.7; Call: inactive
DDX28, technical replicate 3 | viability, normalised (%): 53.9; Call: active

The results go on:
For MACROD1, technical replicate 1, the entry reads viability, normalised (%) = 69.1; active.
MACROD1, technical replicate 2 showed viability, normalised (%) = 73.5; active.
With MACROD1, technical replicate 3, the entry reads viability, normalised (%) = 79; active.
MAP2K7, technical replicate 1 gave viability, normalised (%) = 58.1; active.
MAP2K7, technical replicate 1 showed viability, normalised (%) = 74.8; active.
For MAP2K7, technical replicate 2 the deposit lists viability, normalised (%) = 63.4; active.
MAP2K7, technical replicate 2 gave viability, normalised (%) = 49.3; active.
With MAP2K7, technical replicate 3, the values are viability, normalised (%) = 58.5; active.
With MAP2K7, technical replicate 3, the entry reads viability, normalised (%) = 65.1; active.
CHKA, technical replicate 1 scored viability, normalised (%) = 73.1; active.
With CHKA, technical replicate 2, the values are viability, normalised (%) = 72.2; active.
With CHKA, technical replicate 3, the values are viability, normalised (%) = 72.6; active.
DRD2, technical replicate 1 gave viability, normalised (%) = 38.8; active.
DRD2, technical replicate 2 gave viability, normalised (%) = 40.9; active.
DRD2, technical replicate 3 showed viability, normalised (%) = 51.7; active.
With KMT5B, technical replicate 1, the values are viability, normalised (%) = 57.8; active.
With KMT5B, technical replicate 2 the deposit lists viability, normalised (%) = 65.7; active.
KMT5B, technical replicate 3 showed viability, normalised (%) = 68.2; active.
For PDE6D, technical replicate 1, the values are viability, normalised (%) = 73; active.
PDE6D, technical replicate 2 gave viability, normalised (%) = 80.7; inactive.
PDE6D, technical replicate 3 showed viability, normalised (%) = 69.9; active.
